Assay results from US5532167A, “Substrate specificity of protein kinases” (Beth Israel Hospital, priority 1994, dated 1996).
At least one peptide structure holds a part that was inferred or is arguable (an end, a ring closure or a residue). Where no end group is shown, it is not given here.

What was measured:
[1] = system: pp60^v-src; assay: Kinetics of pp60v-src phosphorylating synthetic peptides; type: biochemical, chicken; details: peptide as substrate; for Km: 10 μM ATP, 10 mM MgCl2, pH 7.0
[2] = biological target: pp60^v-src; assay: Competitive inhibition of v-src transphosphorylation of acid denatured enolase; type: biochemical, chicken; details: inhibition of transphosphorylation of acid denatured enolase (1 μM); read-out: Ki (μM) (K50%)

Row | Molecule | Vmax [1] | Km [1] | Vmax ([1]; Table 13) | Ki [2]
1 | IEKIGEGTYGVVYKGRHKTT [reference compound] | 600 µmol/min/mg | 139 µM | 0.6 µmol/min/mg | 
2 | CC[C@H](C)[C@H](NC(=O)[C@H](CCC(=O)O)NC(=O)[C@H](CCC(=O)O)NC(=O)[C@H](CCC(=O)O)NC(=O)[C@H](C)N)C(=O)N[C@@H](Cc1ccc(O)cc1)C(=O)NCC(=O)N[C@@H](CCC(=O)O)C(=O)N[C@@H](Cc1ccccc1)C(=O)N[C@@H](CCC(=O)O)C(=O)N[C@@H](C)C(=O)N[C@@H](CCCCN)C(=O)N[C@@H](CCCCN)C(=O)N[C@@H](CCCCN)C(=O)N[C@@H](CCCCN)C(=O)O [AEEEIYGEFEAKKKK, Ala-Glu-Glu-Glu-Ile-Tyr-Gly-Glu-Phe-Glu-Ala-Lys-Lys-Lys-Lys] | 0.8 µmol/min/mg | 32.9 µM | 0.8 µmol/min/mg | 8 µM
